Experimental data taken from paper PMC7140707.

B1: GOR1 (protein, UniProt P53839 1-350)
chain: MSKKPIVLKLGKDAFGDQAWGELEKIADVITIPESTTREQFLREVKDPQNKLSQVQVITRTARSVKNTGRFDEELALALPSSVVAVCHTGAGYDQIDVEPFKKRHIQVANVPDLVSNATADTHVFLLLGALRNFGIGNRRLIEGNWPEAGPACGSPFGYDPEGKTVGILGLGRIGRCILERLKPFGFENFIYHNRHQLPSEEEHGCEYVGFEEFLKRSDIVSVNVPLNHNTHHLINAETIEKMKDGVVIVNTARGAVIDEQAMTDALRSGKIRSAGLDVFEYEPKISKELLSMSQVLGLPHMGTHSVETRKKMEELVVENAKNVILTGKVLTIVPELQNEDWPNESKPLV
B2: GPD2 (protein, UniProt P41911 17-440)
chain: HPVLYTRRAYKILPSRSTFLRRSLLQTQLHSKMTAHTNIKQHKHCHEDHPIRRSDSAVSIVHLKRAPFKVTVIGSGNWGTTIAKVIAENTELHSHIFEPEVRMWVFDEKIGDENLTDIINTRHQNVKYLPNIDLPHNLVADPDLLHSIKGADILVFNIPHQFLPNIVKQLQGHVAPHVRAISCLKGFELGSKGVQLLSSYVTDELGIQCGALSGANLAPEVAKEHWSETTVAYQLPKDYQGDGKDVDHKILKLLFHRPYFHVNVIDDVAGISIAGALKNVVALACGFVEGMGWGNNASAAIQRLGLGEIIKFGRMFFPESKVETYYQESAGVADLITTCSGGRNVKVATYMAKTGKSALEAEKELLNGQSAQGIITCREVHEWLQTCELTQEFPLFEAVYQIVYNNVRMEDLPEMIEELDIDDE
B3: GRX2 (protein, UniProt P17695 31-143)
chain: STPKMVSQETVAHVKDLIGQKEVFVAAKTYCPYCKATLSTLFQELNVPKSKALVLELDEMSNGSEIQDALEEISGQKTVPNVYINGKHIGGNSDLETLKKNGKLAEILKPVFQ
B4: GYP1 (protein, UniProt Q08484 1-637)
chain: MGVRSAAKEMHERDHNSDSSSLVTSLMKSWRISSASSSKKPSLYKMNTTESTSLPSGYASSADRDRRTSDGNFEAMAKQQASTRRTSNSYSPLRYVNPTLSTASNESPRPALLLRQHHQRHHHHQQPRHSSSGSVGNNCSNSTEPNKKGDRYFKDLDEDWSAVIDDYNMPIPILTNGGFGTPVAPTRTLSRKSTSSSINSISNMGTSAVRNSSSSFTYPQLPQLQKEKTNDSKKTQLEIENERDVQELNSIIQRISKFDNILKDKTIINQQDLRQISWNGIPKIHRPVVWKLLIGYLPVNTKRQEGFLQRKRKEYRDSLKHTFSDQHSRDIPTWHQIEIDIPRTNPHIPLYQFKSVQNSLQRILYLWAIRHPASGYVQGINDLVTPFFETFLTEYLPPSQIDDVEIKDPSTYMVDEQITDLEADTFWCLTKLLEQITDNYIHGQPGILRQVKNLSQLVKRIDADLYNHFQNEHVEFIQFAFRWMNCLLMREFQMGTVIRMWDTYLSETSQEVTSSYSMSSNDIKPPVTPTEPRVASFVTPTKDFQSPTTALSNMTPNNAVEDSGKMRQSSLNEFHVFVCAAFLIKWSDQLMEMDFQETITFLQNPPTKDWTETDIEMLLSEAFIWQSLYKDATSHWL
B5: HIT1 (protein, UniProt P46973 1-164)
chain: MVSSAVKCGICRGVDGKYKCPKCGVRYCSLKCYKDAAKHVHKESEQPRAGTEANVEVVNNDKIINSSLAMNKTLKTKAFDDIYQNSAELQELLKYNTVKFHLAKVYRILSSTVNDGSSGKMNSDLQKELAVNYLNTLRYGGIHYNEAIEEFCQILLDKLNAVKK
B6: AHA1 (protein, UniProt Q12449 1-350)
chain: MVVNNPNNWHWVDKNCIGWAKEYFKQKLVGVEAGSVKDKKYAKIKSVSSIEGDCEVNQRKGKVISLFDLKITVLIEGHVDSKDGSALPFEGSINVPEVAFDSEASSYQFDISIFKETSELSEAKPLIRSELLPKLRQIFQQFGKDLLATHGNDIQVPESQVKSNYTRGNQKSSFTEIKDSASKPKKNALPSSTSTSAPVSSTNKVPQNGSGNSTSIYLEPTFNVPSSELYETFLDKQRILAWTRSAQFFNSGPKLETKEKFELFGGNVISELVSCEKDKKLVFHWKLKDWSAPFNSTIEMTFHESQEFHETKLQVKWTGIPVGEEDRVRANFEEYYVRSIKLTFGFGAVL
B7: HPA3 (protein, UniProt P39979 1-161)
chain: MSNEEPEKMVNDRIVVKAIEPKDEEAWNKLWKEYQGFQKTVMPPEVATTTFARFIDPTVKLWGALAFDTETGDAIGFAHYLNHLTSWHVEEVVYMNDLYVTERARVKGVGRKLIEFVYSRADELGTPAVYWVTDHYNHRAQLLYTKVAYKTDKVLYKRNGY
B8: IMP2 (protein, UniProt P46972 1-177)
chain: MFRAGSSKRFLRNTLIAISWVPVLLTINNNVVHIAQVKGTSMQPTLNPQTETLATDWVLLWKFGVKNPSNLSRDDIILFKAPTNPRKVYCKRVKGLPFDTIDTKFPYPKPQVNLPRGHIWVEGDNYFHSIDSNTFGPISSGLVIGKAITIVWPPSRWGTDLKLSTGRDCISKRAILE
B9: KCS1 (protein, UniProt Q12494 1-1050)
chain: MDTSHEIHDKIPDTLREQQQHLRQKESEGCITTLKDLNVPETKKLSSVLHGRKASTYLRIFRDDECLADNNNGVDSNNGGSVTCADKITRSEATPKSVPEGLQVSEKKNNPDTLSSSLSSFILSNHEEPAIKPNKHVAHRNNITETGQGSGEDIAKQQSHQPQVLHHQTSLKPIQNVDEGCISPKSTYQESLHGISEDLTLKPVSSATYYPHKSKADSGYEEKDKMENDIDTIQPATINCASGIATLPSSYNRHTFKVKTYSTLSQSLRQENVNNRSNEKKPQQFVPHSESIKEKPNTFEQDKEGEQADEEEDEGDNEHREYPLAVELKPFTNRVGGHTAIFRFSKRAVCKALVNRENRWYENIELCHKELLQFMPRYIGVLNVRQHFQSKDDFLSDLDQENNGKNDTSNENKDIEVNHNNNDDIALNTEPTGTPLTHIHSFPLEHSSRQVLEKEHPEIESVHPHVKRSLSSSNQPSLLPEVVLNDNRHIIPESLWYKYSDSPNSAPNDSYFSSSSSHNSCSFGERGNTNKLKRRDSGSTMINTELKNLVIREVFAPKCFRRKRNSNTTTMGNHNARLGSSPSFLTQKSRASSHDASNTSMKTLGDSSSQASLQMDDSKVNPNLQDPFLKKSLHEKISNALDGSHSVMDLKQFHKNEQIKHKNSFCNSLSPILTATNSRDDGEFATSPNYISNAQDGVFDMDEDTGNETINMDNHGCHLDSGKNMIIKSLAYNVSNDYSHHDIESITFEETSHTIVSKFILLEDLTRNMNKPCALDLKMGTRQYGVDAKRAKQLSQRAKCLKTTSRRLGVRICGLKVWNKDYYITRDKYFGRRVKVGWQFARVLARFLYDGKTIESLIRQIPRLIKQLDTLYSEIFNLKGYRLYGASLLLMYDGDANKSNSKRKKAANVKVNLIDFARCVTKEDAMECMDKFRIPPKSPNIEDKGFLRGVKSLRFYLLLIWNYLTSDMPLIFDEVEMNDMISEEADSNSFTSATGSKINFNSKWDWLDEFDKEDEEMYNDPNSKLRQKWRKYELIFDAEPRYNDDAQVSD
B10: MHP1 (protein, UniProt P43638 1-1398)
chain: MDSKDTQKLLKEHRIPCIDVGWLVRPSASTSKSSRPGKSESKANSVAPDIQMDTARPPVFETSVDSSSSILSSNDKGRRHSVAASLLMDNQRANAGSTSVPTNIPPPRGRSKSVVETNLSNVEADSGHHHHHRHHHHTEDAPAPKKVGFFKSLFGHRKKDQEQQEKERERKERSPSPTHVDRGAAIRRERTATISAESPPPLQYNAPPSYNDTVVPLTRSKTESEVYYENHPQSYYHGRMRTYHSPEEGKVDGTSPADDHNYGGSRPDPRLMDFLRYYKSKDYKLAAFKEGNFIKSSASPTTKKNRRASFSLHNDKPQPAKSLAHQKFDAKGRPIPPHPDAPKLPSAFRKKHPSNASIVDTVDSNSDVSSSAQNNNQTPSSHKFGAFLRKVTSYGNNNNNSTNASSLSANVNNPDTSSTSLWSSSSMEFDPSKITTVPGLENIRPLKHVSFATNTYFNDPPQQICSKNPRKGEVEVKPNGSVVIHRLTPQERKKIMESTSLGVVVGGTGQLKLLNPEEDDANAKSKEEMAPQKQNEVEAHDEEDNNSQRRNIVMAAAEAAAEARAKEAPNELKRIVTNNEEEVTVSKTASHLTIDKPMISRRGASTSSLASMVSSDTNGTNADDEGEILPPPSLKIPHDIVYTRCCHLREILPIPATLKQLKKGSTDPIPILQLRNPRPSMVEIWSFSDFLSIAPVLCLSLDGVQLTVQMLRIILSSLVYKQHFQKLSLRNTPLDEEGWKVLCYFVSKAKSLHSIDLTMVPSIKTNVQKPSKSSLKSKILRMQCNLENRSDMNWDLLTASIALMGGLEEIVISGAKMNSAQFKNFILVACIATERLGLAYNGLSKSQCDDLAKWMVQSKVTGLDVGFNDLNGKLSSFTDAVLGKIQKANEKNVFKFLSLNGTNLRVNEHDTFENNEVLKLISVLCYLENLKFLDISNNPAIFPHCVPTLIDFLPVFVNLVRLHIDYNNLSSTSVVMLAEILPMCSRLNYFSMLGTELDLASSKALAEAVRKSSSLMTLDVDYVYMPENIKEKISLYALRNIQGELKRVNSDDKDIKDSQFSSLQDQLSLLLTEKADNSEHYNKMVENFMAKIALARIKISKVVHDLFDLKLNGQLNLEGKEALIRLCFIEASLERGCDLLKQRHNNTLKSPEAVSKSRKGGNQAQPNSESCQRMLLSSSILQNSDHIALMPFGSAIVEKSSPDAEDAVEFREGDDSNVNHEDVPANDQQFRDEVDIKNKYSIIKRELEHEKLVGGGDLPVDKEILNRAAQSLDSDQIKEFLLKNDVSTILGVIDELHSQGYHLHHIFKKQGNQEETAFRTKDEQQSSQSNDSSANASPTTDPISTGSNTSRTNDNAHIPPTDAPGFDKFMNNAEENAIDAAYDDVLDKIQDARNSSTK

Target: T1, His6-Gis1 (yeast (S. cerevisiae)) (UniProt Q03833)
T1 sequence: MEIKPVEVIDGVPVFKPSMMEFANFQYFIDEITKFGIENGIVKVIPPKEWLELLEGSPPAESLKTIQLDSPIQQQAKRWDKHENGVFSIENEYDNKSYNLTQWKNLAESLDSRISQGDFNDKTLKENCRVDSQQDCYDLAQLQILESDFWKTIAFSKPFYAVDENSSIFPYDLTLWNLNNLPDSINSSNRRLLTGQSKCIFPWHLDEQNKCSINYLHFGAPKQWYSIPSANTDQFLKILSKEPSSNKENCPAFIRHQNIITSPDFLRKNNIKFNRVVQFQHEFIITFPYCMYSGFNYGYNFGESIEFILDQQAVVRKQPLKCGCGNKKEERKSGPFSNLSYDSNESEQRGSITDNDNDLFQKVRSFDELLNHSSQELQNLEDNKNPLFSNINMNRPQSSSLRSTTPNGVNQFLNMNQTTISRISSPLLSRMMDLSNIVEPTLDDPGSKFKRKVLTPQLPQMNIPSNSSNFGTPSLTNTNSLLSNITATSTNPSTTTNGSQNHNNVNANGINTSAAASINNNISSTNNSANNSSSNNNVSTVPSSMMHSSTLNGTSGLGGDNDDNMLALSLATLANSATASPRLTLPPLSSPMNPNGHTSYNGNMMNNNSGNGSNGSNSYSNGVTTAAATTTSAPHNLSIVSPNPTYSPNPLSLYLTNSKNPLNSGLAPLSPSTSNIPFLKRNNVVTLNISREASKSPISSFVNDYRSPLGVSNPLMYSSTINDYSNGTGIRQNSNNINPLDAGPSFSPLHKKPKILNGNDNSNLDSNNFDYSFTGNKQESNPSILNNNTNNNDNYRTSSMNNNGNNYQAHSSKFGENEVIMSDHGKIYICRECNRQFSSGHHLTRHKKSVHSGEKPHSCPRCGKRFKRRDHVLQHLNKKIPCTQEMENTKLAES
Assay: affinity purification with mass spectrometry; His6-Gis1 pre-bound to a Ni Sepharose 6 Fast Flow column; crude yeast extract (Δgis1 cells grown in air or under hypoxia, Δgis1Δhem1 cells at intermediate or high ALA) loaded, 4 °C, 2 h; eluted complexes separated by SDS-PAGE, bands excised, MS; only the target purified

**Q.** With B1 as the binder, how does the binding read?
**A.** binds

**Q.** How did the binding turn out when B2 was run?
**A.** binds

**Q.** Which binding does the source give for B3 here?
**A.** binds

**Q.** B4 was tested. Which binding did it give?
**A.** binds

**Q.** B5 was tested. Which binding did it give?
**A.** binds

**Q.** Which binding does the source give for B6 here?
**A.** binds

**Q.** B7 was tested. Which binding did it give?
**A.** binds

**Q.** For B8, which binding is on record?
**A.** binds

**Q.** B9 was tested. Which binding did it give?
**A.** binds

**Q.** B10 was tested. Which binding did it give?
**A.** binds

Results are given in words; binding and its absence hold for the method and conditions named. In cells and extracts the contact can be indirect. A yes stands for co-enrichment or nearness to the bait. Other partners may have been found. Tags and fused reporters may be left off the sequences shown.
